Measured values taken from US10363284B2 (POLYPHOR AG, priority 2012, dated 2019).

Test: general procedure: Fmoc solid-phase peptide synthesis; Fmoc-Pro-O-2-chlorotrityl resin
Conditions: whole synthesis, UV 220 nm

Substance | final HPLC purity [%]
Resin-Pro^16-^D-Lys(iPr)^15-Lys(iPr)^14-Gln^13-Tyr^12-Cys^11-Tyr^10-Arg^9-Orn(iPr)^8-^DPro^7-Ala^6-Ser^5-Cys^4-Tyr^3-His^2-Tyr^1 | 95
Resin-Pro^16-^DPro^15-Lys(iPr)^14-Gln^13-Tyr^12-Cys^11-Tyr^10-Arg^9-Orn(iPr)^8-^DPro^7-Acc^6-Ser^5-Cys^4-Tyr^3-His^2-Tyr^1 | 95
